Measurements: the M2OR odorant receptor database
The entries are a selection whose mix differs from that of the whole data set. Calls are pooled over several reports, among them a noisy single-well screen. The list shows a part of the results.

Legend:
Settings in all cases: stereoisomer not certain
OR6V1 (Homo sapiens) = target: T1, OR6V1 (Homo sapiens) (UniProt Q8N148)
T1 sequence (whole entry): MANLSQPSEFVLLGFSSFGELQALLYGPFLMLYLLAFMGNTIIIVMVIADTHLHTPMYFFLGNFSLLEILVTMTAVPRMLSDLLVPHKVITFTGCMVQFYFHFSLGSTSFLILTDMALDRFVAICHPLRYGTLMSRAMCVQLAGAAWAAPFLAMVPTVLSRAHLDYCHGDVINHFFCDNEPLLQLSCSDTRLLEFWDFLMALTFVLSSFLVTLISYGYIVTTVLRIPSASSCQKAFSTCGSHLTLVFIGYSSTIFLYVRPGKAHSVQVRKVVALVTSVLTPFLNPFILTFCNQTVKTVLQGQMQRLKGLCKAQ
Outline: (§1)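 Assay methods differ from source to source, frequently being transient luciferase assays in mammalian cell lines. For each receptor–molecule pair, the label responsive (active) applies when the original authors judged the measured signal statistically different from baseline, and non-responsive (inactive) applies otherwise.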

OR6X1 (Homo sapiens) = target: T2, OR6X1 (Homo sapiens) (UniProt Q8NH79)
T2 sequence (whole entry): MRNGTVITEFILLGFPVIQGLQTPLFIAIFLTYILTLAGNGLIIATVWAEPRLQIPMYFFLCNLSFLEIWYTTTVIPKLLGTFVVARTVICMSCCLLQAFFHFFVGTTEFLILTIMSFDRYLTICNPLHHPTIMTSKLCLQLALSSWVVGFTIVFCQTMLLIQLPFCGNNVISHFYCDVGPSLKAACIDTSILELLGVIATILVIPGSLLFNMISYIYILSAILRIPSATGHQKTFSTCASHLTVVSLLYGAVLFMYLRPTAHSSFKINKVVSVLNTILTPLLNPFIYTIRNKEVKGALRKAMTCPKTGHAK
Outline: as §1

OR6Y1 = test system: T3, OR6Y1
T3 sequence (whole entry): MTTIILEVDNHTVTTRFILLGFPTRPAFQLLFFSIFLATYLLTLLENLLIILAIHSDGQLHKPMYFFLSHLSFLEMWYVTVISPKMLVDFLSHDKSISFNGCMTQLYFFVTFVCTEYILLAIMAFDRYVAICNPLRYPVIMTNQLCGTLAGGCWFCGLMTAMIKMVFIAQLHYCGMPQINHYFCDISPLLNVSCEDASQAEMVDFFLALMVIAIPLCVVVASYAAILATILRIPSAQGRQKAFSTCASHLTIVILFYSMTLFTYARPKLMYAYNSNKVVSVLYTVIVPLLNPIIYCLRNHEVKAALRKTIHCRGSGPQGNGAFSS
Outline: as §1

OR7A10 (Homo sapiens) = target: T4, OR7A10 (Homo sapiens) (UniProt O76100)
T4 sequence (whole entry): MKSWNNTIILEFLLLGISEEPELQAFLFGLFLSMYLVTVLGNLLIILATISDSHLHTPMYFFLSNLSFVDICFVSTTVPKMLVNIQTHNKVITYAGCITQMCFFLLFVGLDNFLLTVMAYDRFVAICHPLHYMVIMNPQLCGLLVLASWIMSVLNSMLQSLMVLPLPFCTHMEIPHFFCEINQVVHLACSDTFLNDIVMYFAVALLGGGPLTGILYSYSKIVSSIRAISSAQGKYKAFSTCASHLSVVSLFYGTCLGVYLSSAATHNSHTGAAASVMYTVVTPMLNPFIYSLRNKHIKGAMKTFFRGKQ
Outline: as §1

OR7A17 (Homo sapiens) = target: T5, OR7A17 (Homo sapiens) (UniProt O14581)
T5 sequence (whole entry): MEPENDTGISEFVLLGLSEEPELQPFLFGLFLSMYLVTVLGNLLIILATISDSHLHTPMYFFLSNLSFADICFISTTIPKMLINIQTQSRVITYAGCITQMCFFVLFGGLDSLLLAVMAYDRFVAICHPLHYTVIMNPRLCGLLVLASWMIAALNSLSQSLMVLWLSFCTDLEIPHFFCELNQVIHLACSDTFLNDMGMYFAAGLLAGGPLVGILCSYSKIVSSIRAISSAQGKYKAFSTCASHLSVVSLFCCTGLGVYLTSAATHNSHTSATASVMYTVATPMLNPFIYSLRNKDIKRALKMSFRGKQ
Outline: as §1

OR7A5 (Homo sapiens) = target: T6, OR7A5 (Homo sapiens) (UniProt Q15622)
T6 sequence (whole entry): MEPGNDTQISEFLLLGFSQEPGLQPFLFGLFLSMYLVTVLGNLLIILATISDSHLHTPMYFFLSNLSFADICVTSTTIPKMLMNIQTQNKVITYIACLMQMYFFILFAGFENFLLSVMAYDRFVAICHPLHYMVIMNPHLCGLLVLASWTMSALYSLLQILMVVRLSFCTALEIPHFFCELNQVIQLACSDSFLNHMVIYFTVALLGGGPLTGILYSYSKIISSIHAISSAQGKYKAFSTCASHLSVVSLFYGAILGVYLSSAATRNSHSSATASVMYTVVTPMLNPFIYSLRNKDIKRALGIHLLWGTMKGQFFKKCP
Outline: as §1

OR7C1 = test system: T7, OR7C1
T7 sequence (whole entry): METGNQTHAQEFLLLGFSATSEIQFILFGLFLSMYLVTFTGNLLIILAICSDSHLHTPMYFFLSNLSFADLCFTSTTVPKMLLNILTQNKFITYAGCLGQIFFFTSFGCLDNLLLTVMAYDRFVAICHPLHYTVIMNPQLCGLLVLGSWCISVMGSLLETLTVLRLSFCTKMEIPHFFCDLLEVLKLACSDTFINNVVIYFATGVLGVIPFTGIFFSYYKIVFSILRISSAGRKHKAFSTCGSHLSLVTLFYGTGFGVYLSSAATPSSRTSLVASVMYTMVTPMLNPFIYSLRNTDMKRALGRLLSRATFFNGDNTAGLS
Outline: as §1

OR7C2 = test system: T8, OR7C2
T8 sequence (whole entry): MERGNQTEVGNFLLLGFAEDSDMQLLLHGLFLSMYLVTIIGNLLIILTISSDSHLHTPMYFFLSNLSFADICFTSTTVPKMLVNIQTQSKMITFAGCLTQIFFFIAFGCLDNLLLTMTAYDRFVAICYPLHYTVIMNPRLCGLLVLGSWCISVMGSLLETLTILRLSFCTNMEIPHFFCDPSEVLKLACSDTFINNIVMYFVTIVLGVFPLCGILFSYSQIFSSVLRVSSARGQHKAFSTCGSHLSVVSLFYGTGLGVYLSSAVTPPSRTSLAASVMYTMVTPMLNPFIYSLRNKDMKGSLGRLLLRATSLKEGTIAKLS
Outline: as §1

OR7D2 = test system: T9, OR7D2
T9 sequence (whole entry): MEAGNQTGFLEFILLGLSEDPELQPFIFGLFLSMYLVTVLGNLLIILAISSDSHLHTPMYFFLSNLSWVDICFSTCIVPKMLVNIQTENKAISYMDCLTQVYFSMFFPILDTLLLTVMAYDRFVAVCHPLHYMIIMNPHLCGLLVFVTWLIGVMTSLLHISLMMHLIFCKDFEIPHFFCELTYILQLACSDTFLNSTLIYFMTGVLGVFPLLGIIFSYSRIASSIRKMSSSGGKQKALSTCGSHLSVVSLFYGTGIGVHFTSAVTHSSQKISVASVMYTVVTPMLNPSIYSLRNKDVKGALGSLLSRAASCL
Outline: as §1

OR7D4 (Homo sapiens) = target: T10, OR7D4 (Homo sapiens) (UniProt Q8NG98)
T10 sequence (whole entry): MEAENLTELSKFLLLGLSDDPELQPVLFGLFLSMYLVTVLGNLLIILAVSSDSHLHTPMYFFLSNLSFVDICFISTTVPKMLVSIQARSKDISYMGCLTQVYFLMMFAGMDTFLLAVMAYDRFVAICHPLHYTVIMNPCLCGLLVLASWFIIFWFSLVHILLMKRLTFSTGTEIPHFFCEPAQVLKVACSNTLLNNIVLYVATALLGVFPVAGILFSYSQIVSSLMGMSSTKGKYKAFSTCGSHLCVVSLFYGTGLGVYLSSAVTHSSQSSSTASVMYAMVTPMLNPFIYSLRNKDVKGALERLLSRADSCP
Outline: as §1

Row | SMILES | odorant receptor agonist call (OR6V1 (Homo sapiens)) | odorant receptor agonist call (OR6X1 (Homo sapiens)) | odorant receptor agonist call (OR6Y1) | odorant receptor agonist call (OR7A10 (Homo sapiens)) | odorant receptor agonist call (OR7A17 (Homo sapiens)) | odorant receptor agonist call (OR7A5 (Homo sapiens)) | odorant receptor agonist call (OR7C1) | odorant receptor agonist call (OR7C2) | odorant receptor agonist call (OR7D2) | odorant receptor agonist call (OR7D4 (Homo sapiens))
1 | CC12CCC(CC1)C(C)(C)O2 | inactive | inactive | inactive | inactive | inactive | inactive | inactive | inactive | inactive | inactive
2 | CC(C)(O)CCCC1=CCC(C=O)CC1 (centres undefined) | inactive | inactive | – | – | – | – | – | – | – | –
3 | CCCCO | inactive | inactive | inactive | inactive | inactive | inactive | inactive | inactive | inactive | inactive
4 | C=C(C)C1CCC2=CC(=O)CC(C)C2(C)C1 (centres undefined) | active | inactive | – | – | – | – | – | – | – | –
5 | CC(C)C(=O)O | inactive | inactive | inactive | inactive | inactive | inactive | inactive | inactive | inactive | inactive
6 | COc1ccccc1O | inactive | inactive | inactive | inactive | inactive | inactive | inactive | inactive | inactive | inactive
7 | CCCCCOC(C)=O | inactive | inactive | inactive | inactive | inactive | inactive | inactive | inactive | inactive | inactive
8 | CC(C)CC(=O)O | inactive | inactive | inactive | inactive | inactive | inactive | inactive | inactive | inactive | inactive
